Reference: patent US20230310446A1, “RHO KINASE INHIBITION FOR TREATMENT OF PROLIFERATIVE VITREORETINOPATHY AND CONDITIONS ASSOCIATED WITH EPITHELIAL TO MESENCHYMAL TRANSITION” (The Schepens Eye Research Institute, Inc., priority 2020, published 2023)
For at least one compound, name, drawing or mass did not settle the structure.

System: C-PVR cells
Assay: TGF-β2 induced mesenchymal phenotypic change, phase images
Assay type: cell-based, human
Details: 1 uM, TGF-β2 10 ng/ml, day 3
Procedure: PVR cells were seeded in well plates for a period of 72 hours. Cells were pre-treated with rho-kinase inhibitors: ripasudil, netarsudil, fasudil and […] (1 uM) for 24 hours, then treated with TGF-β2 […], rho-kinase inhibitors (1 uM), and control with no drug, using triplicates for each condition. Changes in phenotype were examined via phase images at day 3.

In the case of Cc1ccc(C(=O)OCc2ccc([C@@H](CN)C(=O)Nc3ccc4cnccc4c3)cc2)c(C)c1 [netarsudil], the “mesenchymal phenotypic change in TGF-β2 treated C-PVR cells” value is reported as “dramatically decreased”.
